# Source: the supplement of paper PMC3334620
# Over roughly 33,000 sequences, “E-score (-0.5 to 0.5)” has its median near -0.0059; the highest 2% begin near 0.26. The list shows a part of the results.
# Target: T1, Cin5 (UniProt P40917)
# T1 sequence: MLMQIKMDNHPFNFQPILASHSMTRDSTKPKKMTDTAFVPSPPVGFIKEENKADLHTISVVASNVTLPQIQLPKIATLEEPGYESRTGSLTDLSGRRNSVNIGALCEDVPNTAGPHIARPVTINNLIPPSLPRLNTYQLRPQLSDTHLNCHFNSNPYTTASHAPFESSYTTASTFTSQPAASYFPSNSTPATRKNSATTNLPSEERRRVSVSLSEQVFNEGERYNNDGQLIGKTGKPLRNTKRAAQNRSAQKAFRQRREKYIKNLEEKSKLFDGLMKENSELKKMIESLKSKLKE
# Assay: PBM E-score (8-mer binding enrichment) (E-score (-0.5 to 0.5)); higher = stronger / more preferred TF binding
# Settings: protein concentration: 100 nM; construct: GST-full length
# Procedure, shortened: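 Universal all-10-mer Agilent arrays, fresh or stripped once, were converted to double-stranded form by primer extension. GST-tagged yeast transcription factors from PURExpress in vitro transcription/translation, full-length or DNA-binding domain only, were applied at about 100-200 nM and detected with fluorescent anti-GST. After masliner normalisation, the Universal PBM Analysis Suite scored each ungapped eight-base word together with its reverse complement by E-score.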
row,Sequence,PBM E-score
1,AAGGAATT,-0.0682
2,ATCGGCAA,-0.00239
3,ACTGCAGC,-0.101
4,ACCGCCAC,-0.0973
5,AAAGAGTC,-0.153
6,AAGTGTCT,-0.0697
7,ATTTACAG,-0.00107
8,ACAGATTC,0.122
9,GCACCGCA,-0.192
10,AGACGCCA,-0.182
11,GCGATCCA,0.0153
12,TACCTTCA,-0.0369
13,CCAGCCAG,-0.254
14,AGATATTA,0.168
15,GGACTGGA,-0.178
16,AGGCTATA,-0.161
17,CATGATCA,0.158
18,TAAGAGTA,0.0454
19,CTGCATTA,-0.154
20,CCAGAGGC,-0.221
21,CGACGCCC,0.0231
22,ACCTGGGG,-0.253
23,CCGCTTAA,0.103
24,CATCAGCC,0.0542
25,AATGAAAC,0.169

# Six entries from above, bar-delimited:
row | Sequence | PBM E-score
10 | AGACGCCA | -0.182
11 | GCGATCCA | 0.0153
12 | TACCTTCA | -0.0369
13 | CCAGCCAG | -0.254
14 | AGATATTA | 0.168
15 | GGACTGGA | -0.178

# Further results follow:

row,Sequence,PBM E-score
1,AACGCGGG,0.132
2,CACCGAGG,-0.17
3,GATCAAGA,0.0483
4,ACCCTGGG,-0.257
5,AAACTCGG,0.0178
6,ACCTCCTG,-0.24
7,GAACCCCA,0.178
8,CGACTAAC,0.0331
9,ATACAACC,0.0923
10,ACCGATGA,-0.138
11,ACTTGAAA,0.0376
12,CCCATTCA,0.214
13,CACGTAGA,0.0501
14,AGGTTGTG,-0.126
15,ATGGCCGC,-0.158
16,CGTTTGGC,-0.136
17,CAGAAAGA,0.0132
18,CACATTTA,0.039
19,CCGGGTCA,-0.198
20,TGAAATCA,0.176
21,GCATACTA,-0.031
22,CCTACCAG,-0.198
23,CCTAGCTA,-0.104
24,CGAGTGCC,-0.212
25,ATTTATCG,0.119

row,Sequence,PBM E-score
1,GGAGCTCC,-0.164
2,CCTGGGCG,-0.2
3,AACAAGGA,0.0607
4,GAGTTTGA,0.117
5,ACCGTTAA,0.05
6,ACGGAAAC,-0.00025
7,CATATACG,0.00122
8,ACCTGGCC,0.00508
9,CGTTCATA,-0.0697
10,CAACCTGA,-0.023
11,CATGCCGC,0.122
12,CACGATAA,0.108
13,GGTCGGCA,-0.184
14,AAGAGGCT,-0.114
15,ACATCTTC,0.108
16,TCCCTAGA,-0.00978
17,GATCGCGC,0.0898
18,TAGTGGCA,-0.0513
19,AAAGGCAG,-0.0351
20,CAACGATC,-0.0562
21,TCAACGGA,0.0565
22,TACGCAAA,-0.01
23,ATAGAACG,0.139
24,ATCATCGA,0.165
25,AGTCGAGA,0.0157

row,Sequence,PBM E-score
1,AATTAGAC,0.0847
2,ATGACTAG,-0.048
3,ATCCGGCA,0.0463
4,AGGAGCGA,-0.233
5,ATTGGTCA,0.0917
6,AGTAGTAA,0.142
7,CGACGGGA,-0.00694
8,AGGGACCG,-0.198
9,AGATATCG,-0.00301
10,CACTGTGA,-0.124
11,CTCTTGAA,-0.0838
12,CTCTCGAC,-0.178
13,GCGATTCA,0.0512
14,AGCTGATC,0.0915
15,AGCATAAT,0.123
16,GCCCTCTA,-0.266
17,CAGTTACA,0.0652
18,AAAACATG,0.133
19,ACGCTCAG,-0.192
20,GCAGGGCA,-0.0716
21,GCAAGAGC,-0.0238
22,CACATCCG,0.116
23,GAATCCCC,-0.16
24,GCCAGTCA,-0.0633
25,ACTCAGTC,-0.0445

row,Sequence,PBM E-score
1,CGATGACG,-0.102
2,CCGATCTC,-0.0669
3,CGGTACAG,0.034
4,AAGGACCT,0.0084
5,CGGTTAAG,-0.0684
6,AGTGAATC,0.0638
7,ACGCATCC,-0.224
8,CCTTTTGA,0.0204
9,CAGCGTGG,-0.127
10,ACATAACC,0.235
11,ATTTGGTC,0.16
12,AACCAACT,0.162
13,GTAGAGAC,-0.242
14,GCTGTTAC,-0.151
15,AAGTGTGC,0.131
16,CACTACCA,-0.0289
17,GGTCTAAC,-0.151
18,CATGGAGG,-0.227
19,ACCACACG,0.0321
20,GCCTGGTA,-0.165
21,CTAGCGCC,-0.183
22,AGTGCGCC,-0.144
23,TCGATTAA,0.267
24,AACCCCTT,-0.0504
25,CGGCTATA,0.00727

row,Sequence,PBM E-score
1,CTCCAAAA,-0.122
2,CTTACCTA,0.32
3,GACTCGAC,-0.201
4,CAAGCACC,-0.111
5,AGTTTCTA,-0.185
6,GCCGAGAA,0.0859
7,CTTTCAGC,-0.127
8,CCTCGTTA,-0.0804
9,GTCAAATA,0.162
10,GCGGCTTA,0.253
11,CTTATATA,0.348
12,CGCACTTC,-0.0754
13,AAATTACA,0.248
14,CAACTAGA,-0.0483
15,AAGATATC,0.207
16,GAGTAGGA,0.0169
17,CTATTTGC,-0.0503
18,GTAGCCAC,-0.273
19,GATGATGA,0.176
20,CAACGTCC,-0.148
21,AAGATTTG,0.0695
22,AAGATTGT,-0.00095
23,ATTACTCC,0.115
24,AGGGGAAA,-0.04
25,AACTGCGC,0.0208

# Already shown: an excerpt of the list.
row,Sequence,PBM E-score
12,AACCAACT,0.162
13,GTAGAGAC,-0.242

# Carrying on.

row,Sequence,PBM E-score
1,CCGTGACG,-0.013
2,AATTGGCG,0.136
3,CTATGTTA,0.202
4,CTTCAGAC,-0.127
5,CCGTTTAC,0.161
6,CATGTACA,-0.159
7,GATTAGAA,0.0432
8,AGCATGAA,0.0895
9,ATGACCTC,-0.104
10,AATGGTCT,-0.0588
11,CTCGCATC,0.0143
12,ACTCAGCG,0.0884
13,GGGCAAGA,0.0871
14,CACGGCTC,-0.0578
15,GCGTACAA,-0.118
16,ACTATGCG,0.155
17,ATCGAGGG,0.0234
18,ACTACTGG,-0.0628
19,CTGTCAGC,0.148
20,CGCAACCC,0.0469
21,CTAGGGGC,-0.23
22,CTTAAACA,-0.0118
23,GCCAGTAC,-0.174
24,CTAGACTA,-0.0925
25,GACTGGAC,-0.379

row,Sequence,PBM E-score
1,ATGCCGCG,0.0262
2,CTTTAGTC,-0.207
3,GAGGTAGA,-0.0525
4,CGAATGCC,-0.0866
5,CCTCATCG,0.176
6,AATGCACA,0.0643
7,CATCGGAA,0.159
8,AGCTAATA,0.0776
9,AACCCTTG,-0.107
10,ATCAGGCG,0.0165
11,ATAACCGC,0.134
12,CGTTTAGC,-0.0184
13,ATTAGCGG,-0.011
14,AAATTGAG,0.0703
15,ACAGGTCT,-0.185
16,CATAAACA,0.199
17,GTGGAAAC,0.0486
18,GAGTACAC,-0.039
19,CTAGGTTA,0.118
20,AAGTGGTG,-0.0223
21,CAGCCAAA,0.0853
22,CGCTTTCC,0.0415
23,AACCTGCG,-0.0647
24,TAACGGCA,-0.024
25,ACTCATGC,-0.0208

row,Sequence,PBM E-score
1,ACTCTTAA,-0.16
2,ACACTCAC,0.066
3,CCGAGTCG,-0.238
4,ATAGACTA,-0.00533
5,CCCACTAC,0.0221
6,AAGCAAGT,0.116
7,CATCTACA,0.156
8,ATCCAAGC,-0.0731
9,GACTGGCC,-0.128
10,CCACGTGC,-0.0809
11,AAGACTAC,0.0417
12,GCATCAAA,0.018
13,AGACGCAC,-0.134
14,AGATCCTA,-0.0804
15,CCTCGCCA,-0.273
16,GGCGGCTA,-0.098
17,TTCGAGAA,0.0129
18,ACCCACGC,-0.114
19,CACCTTGA,0.00105
